In paper PMC8986778, “Citrullination of glucokinase is linked to autoimmune diabetes” (Nature Communications, 2022):
Entries after “also recorded” stand apart in the source; their conditions may differ.

System: recombinant human pancreatic glucokinase
Assay: Identification of citrullination sites in PAD-treated rhGK by LC-MS/MS
Conditions: PAD-treated rhGK (Hexokinase-4 with DDK tag, P35557), LC-MS/MS Orbitrap Fusion, Mascot search; residue numbered within the peptide
Method: For in vitro citrullination, 0.1U of rabbit peptidylarginine deiminase (PADI2; Sigma–Aldrich) were added to 50 µg of recombinant human pancreatic glucokinase (rhGK; LS-G3456, LSBio) in reaction buffer (0.1 M Tris-HCl, 10 mM CaCl2 and 5 mM DTT) at 37 °C for 2.5 hrs and kept at -80 °C in multiple aliquots to avoid freeze and thaw until used. Minimum 6 µg of rhGK and PAD-treated-rhGK were reduced, alkylated and tryptic digested for LS-MS/MS analysis. Data were collected on a QE-Plus mass spectrometer coupled to a NanoACQUITY UPLC (Waters Inc.). A Waters Symmetry® C18 180 μm × 20 mm trap column and a 1.7-μm, 75 μm × 250 mm nanoACQUITY UPLC column (35 °C) was utilized for the separation. Collected LC–MS/MS data were processed using Proteome Discoverer Software (v. 2.2, Thermo Fisher Scientific) and searched were carried out in MASCOT Search Engine (Matrix Science) using the below parameters; oxidation (M), deamidated (N/Q) and citrullination (R) as the variable modifications and carbamidomethylation (C) as a fixed modification. Mascot results were loaded into Scaffold Q + S 4.11.0 and then Scaffold PTM 3.3.0 was used to re-analyze MS/MS spectra identified as citrulline modified peptides. Calculated Ascore values for citrullinated peptides containing the neutral loss of isocyanic acid (−43 Da)[54] indicate the level of site localization probabilities to assess the level of confidence in each citrullination PTM localization. Scaffold PTM then combines localization probabilities for all peptides containing each identified PTM site to obtain the best estimated probability that a PTM is present at that particular site. Manual MS/MS inspection of the modified peptides were also carried out to ensure correct assignments/localizations of the citrullination sites (detailed MS/MS spectra are presented in Source Data-File 2 spreadsheet).

Sequence	Variable modifications: citrullinated (Deamidated R) residue identified in the tryptic peptide
ASGAEGNNVVGLLRDAIK	R14 : Deamidated (R), with neutral losses 0.0000(shown in table), 43.0058
GAFETRFVSQVESDTGDR	R6 : Deamidated (R), with neutral losses 43.0058(shown in table), 0.0000
GAFETRFVSQVESDTGDRK	R6 : Deamidated (R), with neutral losses 0.0000(shown in table), 43.0058; also recorded: R18 : Deamidated (R), with neutral losses 0.0000(shown in table), 43.0058
GLRLETHEEASVK	R3 : Deamidated (R), with neutral losses 0.0000(shown in table), 43.0058
QIYNILSTLGLRPSTTDCDIVR	R12 : Deamidated (R), with neutral losses 0.0000(shown in table), 43.0058
TRGAFETR	R2 : Deamidated (R), with neutral losses 43.0058(shown in table), 0.0000
